Where “and” joins values, the source holds several entries; their conditions need not be identical. Equal entries are not always repeated. The whole screen tested about 300,000 compounds, of which about 5,400 (1.8%) were called active. This list was built around the results that the source calls inconclusive (neither active nor inactive); the mix of calls is not that of the screen. Calls follow the shape of the full dose curve; tested in HEK293 cells. A potency beside an inconclusive call is a rough fit, not a confirmed value.
assay: qHTS for inhibitors of binding or entry into cells for Marburg Virus; details: Marburg virus pseudotyped entry inhibition, cell reporter; series mostly up to 37.8 µM
Potency is read from the fitted curve at half-maximal effect.

Row | SMILES | Potency
1 | Cc1sc2ncnc(Nc3ccc(O)cc3)c2c1C | inactive
2 | O=C(CCn1nc(-c2ccc(Cl)cc2)c2ccccc2c1=O)NCC1CCCO1 (stereo not drawn) | inconclusive: 35.5 µM [inhibitor, partial curve, poor fit]
3 | COc1ccc(C(=O)N2CCC(C(=O)NC3CC3)CC2)cc1 | inconclusive: 1.58 µM [activator, partial curve, poor fit]
4 | Cc1ccc(S(=O)(=O)Nc2ccc(-c3nnc(SCc4ccccc4Cl)o3)cc2)cc1 | inconclusive: 6.51 µM [activator, single point]
5 | COC(=O)N(C=Cc1ccc(OC)cc1)CCc1ccc(OC)c(OC)c1 | inactive
6 | COc1cc(C(=O)NCC2CCCO2)cc(OC)c1OC (stereo not drawn) | inactive
7 | Cc1c(NC(=O)Nc2ccc3c(c2)OCO3)c(=O)n(-c2ccccc2)n1C | inactive
8 | CC(=O)NCCc1ccc(C(=O)COC(=O)C2CCCCC2)cc1 | inconclusive: 10 µM [activator, partial curve, poor fit]
9 | O=C(COC(=O)Cn1cnc2ccccc21)Nc1ccc2c(c1)C(=O)c1ccccc1C2=O | inconclusive: 2.59 µM [activator, full curve, poor fit]
10 | Cn1c(SCc2nc(-c3ccc(Cl)cc3)no2)nnc1-c1cccs1 | inactive
11 | O=C(CN1C(=O)CCSc2ccccc21)Nc1ccccc1F | inactive
12 | O=C(Nc1cccc(F)c1)N1CCCC(CNS(=O)(=O)Cc2ccccc2)C1 (stereo not drawn) | inactive
13 | Cc1cc(C)nc(NS(=O)(=O)c2ccc(-n3cccc3)cc2)n1 | inconclusive: 0.501 µM [inhibitor, full curve, poor fit]
14 | COc1cccc(NC(=O)CN(Cc2ccccc2)S(C)(=O)=O)c1 | inconclusive: 0.0891 µM [inhibitor, full curve, poor fit]
15 | COc1ccc2sc(N(CCCN(C)C)C(=O)c3ccc(S(=O)(=O)N(C)C4CCCCC4)cc3)nc2c1 | inconclusive: 35.5 µM [inhibitor, single point]
16 | CC1CCc2c(sc3nc(C(C)(C)C)nc(N4CCN(C(=O)CCl)CC4)c23)C1 (stereo not drawn) | inconclusive: 35.5 µM [inhibitor, partial curve, poor fit]
17 | CC(C)(C)OC(=O)C1=NOC2(C=CC(=O)C=C2)C1 | inconclusive: 2.66 µM [inhibitor, single point] and inconclusive: 35.3 µM [inhibitor, single point]
18 | COc1ccc(CNCCC2(O)CC(C)N(C)CC2C)cc1OC (stereo not drawn) | inconclusive: 11.2 µM [inhibitor, partial curve]
19 | COc1cc2c(cc1OC)C1C/C(=N\O)C(CC(C)C)CN1CC2 (stereo not drawn) | inactive
20 | O=C(Nc1nc2ccc(F)cc2s1)c1nc(S(=O)(=O)Cc2ccccc2)ncc1Cl | inactive
21 | O=C(Nc1ccccc1N1CCCC1)C1CCN(S(=O)(=O)c2ccccc2C(F)(F)F)CC1 | inconclusive: 0.501 µM [inhibitor, full curve, poor fit]
22 | COC(=O)c1ccccc1S(=O)(=O)N(CCCO)Cc1cc2c(C)ccc(C)c2[nH]c1=O | inconclusive: 32.6 µM [inhibitor, single point]
23 | COCCN=C1Sc2nc3ccc(C)cc3cc2CN1Cc1cccs1 | inactive

Row | SMILES | Potency
24 | COc1ccc(CNC(=O)c2cc3c(s2)-c2ccccc2OC3)cc1 | active: 10 µM
25 | COc1cc(OC)cc(C(=O)OCC(=O)N(C)c2ccccc2)c1 | inactive
26 | O=C(c1ccc(S(=O)(=O)c2ccccc2Cl)c([N+](=O)[O-])c1)N1CCN(Cc2ccccc2)CC1 | inconclusive: 25.1 µM [inhibitor, partial curve, poor fit]
27 | Cc1cc2ncn(C(=O)c3c(-c4c(Cl)cccc4Cl)noc3C)c2cc1C | inactive
28 | NC(=O)c1ccccc1N=Cc1ccc2ccccc2c1 | inconclusive: 2.51 µM [activator, single point]
29 | c1ccc(CCCc2nc(-c3ccccn3)no2)cc1 | inactive
30 | O=C(c1ccc(-n2c(SCc3cccc(F)c3)nc3ccccc3c2=O)cc1)N1CCOCC1 | inactive
31 | Cc1ccc2nc(NC(=O)CSCC(=O)OCC(=O)c3ccccc3)sc2c1 | inconclusive: 3.55 µM [inhibitor, partial curve, poor fit]
32 | O=C(Nc1ccc(S(=O)(=O)N2CCOCC2)cc1)C1CC(=O)N(c2ccc(F)cc2)C1 (stereo not drawn) | inconclusive: 20.6 µM [activator, partial curve, poor fit]
33 | O=C(Nc1cccc(S(=O)(=O)N2CCCCC2)c1)Nc1ccc(Cl)cc1Cl | inconclusive: 8.91 µM [inhibitor, partial curve, poor fit]
34 | COc1ccc(NC(=O)N2CCC(c3nc(-c4cccs4)no3)CC2)cc1 | inactive
35 | Cc1ccc(S(=O)(=O)Nc2ccc(N=Nc3ccc(O)cc3)cc2)cc1 | inconclusive: 5.01 µM [inhibitor, full curve]
36 | O=C(CCNS(=O)(=O)c1ccccc1)OCC(=O)c1ccc(F)cc1 | inconclusive: 12.6 µM [activator, partial curve, poor fit]
37 | CC(=O)c1ccccc1NC(=O)COC(=O)/C(=C/c1ccccc1)n1nnnc1C | inconclusive: 7.08 µM [inhibitor, partial curve, poor fit]
38 | CCOC(=O)C1CCN(C(=O)C2CCN(C3=NS(=O)(=O)C(c4ccc(C)c(C)c4)=C3C)CC2)CC1 | inactive
39 | CCOC(=O)CC(=O)CSc1nc2ccccc2c(=O)n1-c1ccc(C(=O)N2CCOCC2)cc1 | inconclusive: 32.6 µM [inhibitor, single point]
40 | CC(C)c1ccc(OCC(O)CNC(C)c2ccccc2)cc1 (stereo not drawn) | inconclusive: 20 µM [inhibitor, partial curve, poor fit]
41 | CC1(c2ccccc2)CC(c2ccccc2)=Nc2ccccc2N1 (stereo not drawn) | inactive
42 | O=C1c2ccccc2C(O)N1c1ccccc1 (stereo not drawn) | inconclusive: 6.31 µM [activator, single point]
43 | CCOC(=O)N/N=C\c1ccc(OC/C=C/c2ccccc2)cc1 | inactive
44 | COc1ccc(NC(=O)C2CCCC2)cc1 | inconclusive: 3.16 µM [inhibitor, partial curve, poor fit]
45 | CC(C)CNC(=O)c1cc(-c2ccco2)on1 | inconclusive: 1.64 µM [activator, partial curve]
46 | Cc1ccc2c(=O)cc(C(=O)Nc3ccc(S(=O)(=O)N4CCCCCC4)cc3)oc2c1C | inactive

An excerpt from above in order of number of heavy atoms, descending:
Row | SMILES | Potency
38 | CCOC(=O)C1CCN(C(=O)C2CCN(C3=NS(=O)(=O)C(c4ccc(C)c(C)c4)=C3C)CC2)CC1 | inactive
26 | O=C(c1ccc(S(=O)(=O)c2ccccc2Cl)c([N+](=O)[O-])c1)N1CCN(Cc2ccccc2)CC1 | inconclusive: 25.1 µM [inhibitor, partial curve, poor fit]
32 | O=C(Nc1ccc(S(=O)(=O)N2CCOCC2)cc1)C1CC(=O)N(c2ccc(F)cc2)C1 (stereo not drawn) | inconclusive: 20.6 µM [activator, partial curve, poor fit]
40 | CC(C)c1ccc(OCC(O)CNC(C)c2ccccc2)cc1 (stereo not drawn) | inconclusive: 20 µM [inhibitor, partial curve, poor fit]

(continued)

Row | SMILES | Potency
47 | CC(C)(C)c1ccc(/C=N/N2C(=O)CSC2=S)cc1 | inconclusive: 5.62 µM [activator, single point]
48 | O=C(Oc1c(CN2CCOCC2)cc(Cl)c2cccnc12)c1ccccc1F | inconclusive: 5.62 µM [inhibitor, full curve, poor fit]
49 | O=C(NNC1OC(CO)C(O)C(O)C1O)c1cccc(Br)c1 (stereo not drawn) | inactive
50 | Nc1ncnc2c1ncn2[C@@H]1O[C@H](COP(=O)(O)OP(=O)(O)OP(=O)(O)OP(=O)(O)OC[C@@H]2O[C@H](n3cnc4c(N)ncnc43)[C@@H](O)[C@@H]2O)[C@H](O)[C@H]1O | inconclusive: 0.02 µM [activator, full curve, poor fit]
51 | O=C(Cc1c(O)c2ccccc2oc1=O)c1ccc(F)cc1 | inconclusive: 10 µM [activator, partial curve, poor fit]
52 | C(=C\c1nc(N2CCCCCC2)c2ccccc2n1)/c1ccccc1 | active: 11.2 µM
53 | O=C(O)CCc1ccc(-c2ccc(F)cc2)n1CCC(=O)O | inactive
54 | Cc1cc(C)c2sc(NNC(=O)c3ccc(S(=O)(=O)N4CCc5ccccc5C4)cc3)nc2c1 | inconclusive: 20.6 µM [inhibitor, single point]
55 | CC(C)N1CCc2c(sc(NC(=O)c3cc(-c4cccs4)nc4ccccc34)c2C(N)=O)C1 | inconclusive: 20.6 µM [inhibitor, single point]
56 | COCOc1cc(OC)ccc1C(=O)/C=C/c1ccc2c(c1)OCO2 | inactive
57 | CCOc1ccc(-c2[nH]ncc2Oc2cccc(OC)c2)c(O)c1 | inconclusive: 22.4 µM [inhibitor, single point]
58 | C#CCOC(=O)/C(=C/C=C/c1ccccc1)NC(=O)c1ccccc1 | inconclusive: 35.5 µM [activator, single point]
59 | COC(=O)C1=C(C)N(Cc2ccccc2)C(=NCCc2c[nH]c3ccccc23)NC1c1ccc(Br)cc1 (stereo not drawn) | inconclusive: 1.5 µM [inhibitor, partial curve, poor fit]
60 | CC1CC(NC2=NCCS2)CC(C)(C)C1 (stereo not drawn) | inconclusive: 14.1 µM [inhibitor, single point]
61 | O=C(Nc1ccc(Cl)cn1)c1ccc2nccnc2c1 | inconclusive: 3.16 µM [activator, partial curve, poor fit]
62 | Cc1ccc(C)c(OCCn2cc(C(=O)O)c3ccccc32)c1 | inactive
63 | CCN(CC(=O)Nc1ccccc1C(=O)OC)S(=O)(=O)c1ccc(OC)cc1 | inconclusive: 35.5 µM [inhibitor, partial curve, poor fit]
64 | Cc1ccc(C(=O)Nc2ccc3nc(C)sc3c2)s1 | inactive
65 | COc1ccc(-c2cc(C(F)(F)F)n3nc(C(=O)Nc4cccc(Cl)c4C)cc3n2)cc1 | inconclusive: 3.55 µM [activator, single point]
66 | CCOc1nc(-c2ccccc2)ncc1Oc1ccccc1 | inactive
67 | O=C(CNCc1ccccc1Cl)Nc1ccccc1N1CCCCC1 | inconclusive: 14.1 µM [inhibitor, single point]
68 | CCOc1ccc(C(C(=O)NC2CCCC2)N(C(=O)c2snc(C(N)=O)c2N)c2cccc(O)c2)cc1 (stereo not drawn) | inconclusive: 22.4 µM [inhibitor, single point]
